# Percent effect of library compounds

Data taken from ChEMBL document CHEMBL3988442, “University of Dundee, Small-Polar-MMV Screening Library” (2021).

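Whole-parasite assay of Trypanosoma brucei over 72 hours; the read-out is not stated. Tested at 30 µM. The record gives no direction; compounds that gave an IC50 in retests scored well above the rest, so higher reads as stronger inhibition. Values scatter widely below zero; nearly all retest evidence comes from the higher of the two concentrations used. Of about 64,000 compounds tested this way, about 940 (1.5%) reached 50% or more in at least one test.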

Each number is a percent effect as filed.
The controls that fix the scale are not given in the record; negative values are as filed.
The compounds are a random part of those screened.

Result for Cc1noc(CCCC(=O)Nc2cc(C(F)(F)F)c[nH]c2=O)n1 was -5.621%. For O=C(NCC(F)F)c1ccc(S(=O)(=O)NCCc2ccncc2)cc1 the result was -4.11%. With c1cncc(CN2CCCC(Nc3ncnc4c3CCNCC4)C2)c1 (stereo not given) the screen gave 0.5729%. O=C1CC(N(C(=O)c2ccccc2Br)C2CC2)C(=O)N1 (stereo not given) read 0.7884%.

For CCc1cc(CNC(=O)C2CCCN(C(=O)NCC(C)C)C2)[nH]n1 (stereo not given) the result was -53.92%. With [H][C@@]12CCN(C[C@@H]1c1cc(-c3ccccc3)nn1C)[C@@H](CNS(C)(=O)=O)C2 the screen gave 7.488%. CC(C)c1ccc(OCCC(=O)NCCC(=O)N(C)C)cc1 gave -10.87%. Cc1cc(NC(=O)CN2CCCC2c2noc(C)n2)n(C)n1 (stereo not given) gave 7.107%.

CC(C)Nc1ncc(-c2csc(NC(=O)C[C@H]3COCCN3)n2)cn1 gave 3.485%. For COc1ccccc1CC1CCCN(C(=O)c2nccnc2N)C1 (stereo not given) the result was -133.5%. For O=C1CCSCC(C(=O)N2CCC(O)CC2)N1 (stereo not given) the result was -5.62%. For Cc1cc(C[C@@H]2COC[C@H]2NCc2ccc(Cl)c(Cl)c2)on1.O=C(O)CC(O)(CC(=O)O)C(=O)O the result was 12.7%.

CC1(c2ccc(Br)cc2)CC(=O)N(CCC#N)C1=O (stereo not given) read -17.05%. For N#Cc1cc(F)c(NCCc2ccc(S(N)(=O)=O)cc2)c(F)c1 the result was 8.141%. Result for N#Cc1cc2c(nc1SCc1cc(O)nc(O)n1)CCCCC2 was 6.235%. For Cc1nc(CN(C)Cc2cnc(N3CCOCC3)s2)no1 the result was -7.91%.

Result for c1cnnc(N2CCCC2CNc2ncnc3c2CCC3)c1 (stereo not given) was 19.65%. With CC1CCC(NC(=O)CNC2(c3ccc(F)cc3)CCOCC2)CC1 (stereo not given) the screen gave -5.845%. Result for C=C(C)COc1ccccc1NC(=O)NC1CCOCC1 was -68.2%. CCc1ncc(CN2CCc3nc4sc(C)cc4c(=O)n3CC2)cn1 read 12.26%.

Result for CC1c2ncc(COCC3CC3)n2CCN1C(=O)c1ccn(C)n1 (stereo not given) was 40.06%. O=C(NCc1cccc(N2CC=CC2)c1)NC1CC1 read -20.8%. With Cc1nccc(N[C@H]2CN(C(=O)CCN3CCCC3=O)C[C@@H]2C(C)C)n1 the screen gave -13.25%. For Cc1nsc(NC2CCN(c3ccccc3OC(F)F)C2=O)n1 (stereo not given) the result was -54.89%.

With CN(C(=O)COC1CCCC1)C1CCN(CC2CCOC2)CC1 (stereo not given) the screen gave 8.886%. With CCN(CC)Cc1cc(=O)n2c(n1)CN(S(=O)(=O)C1CC1)CCC2.O=C(O)C(F)(F)F the screen gave -2.806%. With COCCc1noc(CN2CCc3nn(C(C)C)c(=O)cc3C2)n1 the screen gave -38.76%. With CCOC1CC2(CCN(C(=O)COC)CC2)c2cc(C)ccc21 (stereo not given) the screen gave -45.13%.

O=C(O)C(F)(F)F.O=C(O)C(F)(F)F.c1cncc(N2CCCC3(CCN(CCN4CCCC4)CC3)C2)c1 read -7.746%. Cc1noc(C)c1CN(C)Cc1csc(-c2ccccc2F)n1 read 1.086%. CN(CC(=O)NC1CC1)S(=O)(=O)c1ccc(F)cc1Cl gave -44.97%. For COCCN1CCC2(CCCN(C(=O)c3ccoc3C)C2)C1=O (stereo not given) the result was -9.809%.

CCc1ncncc1C(=O)N1CCN(Cc2cscn2)CC1 gave -16.72%. Result for COc1cccc(S(=O)(=O)NC(=O)CC2CCCO2)c1 (stereo not given) was -36.66%.

For reference, 3 entries once more:

{"smiles": "O=C(NCc1cccc(N2CC=CC2)c1)NC1CC1", "Percent Effect": -20.8}
{"smiles": "CCOC1CC2(CCN(C(=O)COC)CC2)c2cc(C)ccc21", "stereo": "stereo not given", "Percent Effect": -45.13}
{"smiles": "O=C1CC(N(C(=O)c2ccccc2Br)C2CC2)C(=O)N1", "stereo": "stereo not given", "Percent Effect": 0.7884}